Experimental data taken from the supplement of paper PMC12819154, “High-throughput peptide-centric local stability assay extends protein–ligand identification to membrane proteins, tissues and bacteria” (Nature Structural & Molecular Biology, 2025).
Some of the results follow. Small differences around the control level are noise.

Protein sequences, listed by entry. Tags and fused reporters are not part of them. Lines headed by an entry give the natural chain unless they say otherwise; changes in a name come on top.
UniProt Q9CQQ4: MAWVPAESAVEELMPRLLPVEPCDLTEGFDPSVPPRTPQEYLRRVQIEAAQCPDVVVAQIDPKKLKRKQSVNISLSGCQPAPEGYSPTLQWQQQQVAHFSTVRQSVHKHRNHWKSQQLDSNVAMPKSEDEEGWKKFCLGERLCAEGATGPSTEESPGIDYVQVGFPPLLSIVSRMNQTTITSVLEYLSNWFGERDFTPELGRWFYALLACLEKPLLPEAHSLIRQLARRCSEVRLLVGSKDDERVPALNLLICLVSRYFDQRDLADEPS
UniProt Q9CQ26: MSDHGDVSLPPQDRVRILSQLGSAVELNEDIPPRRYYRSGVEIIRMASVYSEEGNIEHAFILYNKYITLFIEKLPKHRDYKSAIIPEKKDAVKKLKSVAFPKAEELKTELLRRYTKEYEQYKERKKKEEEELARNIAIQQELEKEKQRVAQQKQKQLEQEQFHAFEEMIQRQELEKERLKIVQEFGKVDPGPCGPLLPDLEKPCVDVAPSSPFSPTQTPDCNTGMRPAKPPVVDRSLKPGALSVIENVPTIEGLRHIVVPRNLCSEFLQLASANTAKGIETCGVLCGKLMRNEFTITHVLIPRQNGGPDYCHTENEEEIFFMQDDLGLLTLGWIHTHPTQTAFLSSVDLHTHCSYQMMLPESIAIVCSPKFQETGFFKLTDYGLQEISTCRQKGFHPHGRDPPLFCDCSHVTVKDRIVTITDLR
UniProt Q99M04: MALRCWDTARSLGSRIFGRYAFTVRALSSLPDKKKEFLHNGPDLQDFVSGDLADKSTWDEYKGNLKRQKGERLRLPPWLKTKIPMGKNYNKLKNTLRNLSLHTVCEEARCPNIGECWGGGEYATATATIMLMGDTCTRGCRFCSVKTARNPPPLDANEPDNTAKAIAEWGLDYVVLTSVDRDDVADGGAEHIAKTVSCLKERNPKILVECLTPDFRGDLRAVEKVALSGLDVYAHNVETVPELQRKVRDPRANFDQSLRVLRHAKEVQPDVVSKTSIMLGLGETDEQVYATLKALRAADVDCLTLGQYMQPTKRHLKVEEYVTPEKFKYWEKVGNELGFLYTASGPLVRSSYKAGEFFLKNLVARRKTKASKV
UniProt Q9CQ19: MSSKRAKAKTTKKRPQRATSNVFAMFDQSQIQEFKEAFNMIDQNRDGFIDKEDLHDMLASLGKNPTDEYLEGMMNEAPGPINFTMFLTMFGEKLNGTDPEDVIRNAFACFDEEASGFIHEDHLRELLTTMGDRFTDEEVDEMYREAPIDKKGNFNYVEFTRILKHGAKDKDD
UniProt Q9CQJ7: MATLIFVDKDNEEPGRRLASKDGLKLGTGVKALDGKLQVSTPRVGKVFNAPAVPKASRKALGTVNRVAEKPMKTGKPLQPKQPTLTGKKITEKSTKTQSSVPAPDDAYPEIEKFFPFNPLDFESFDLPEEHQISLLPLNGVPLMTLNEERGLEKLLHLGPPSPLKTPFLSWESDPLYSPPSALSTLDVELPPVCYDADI
UniProt Q9BCZ4, whole entry: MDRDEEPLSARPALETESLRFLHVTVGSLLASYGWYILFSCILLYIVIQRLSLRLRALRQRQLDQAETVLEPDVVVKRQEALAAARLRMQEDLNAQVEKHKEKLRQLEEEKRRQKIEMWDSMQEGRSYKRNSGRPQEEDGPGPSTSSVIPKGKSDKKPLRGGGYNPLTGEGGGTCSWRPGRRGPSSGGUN
UniProt Q99MD8: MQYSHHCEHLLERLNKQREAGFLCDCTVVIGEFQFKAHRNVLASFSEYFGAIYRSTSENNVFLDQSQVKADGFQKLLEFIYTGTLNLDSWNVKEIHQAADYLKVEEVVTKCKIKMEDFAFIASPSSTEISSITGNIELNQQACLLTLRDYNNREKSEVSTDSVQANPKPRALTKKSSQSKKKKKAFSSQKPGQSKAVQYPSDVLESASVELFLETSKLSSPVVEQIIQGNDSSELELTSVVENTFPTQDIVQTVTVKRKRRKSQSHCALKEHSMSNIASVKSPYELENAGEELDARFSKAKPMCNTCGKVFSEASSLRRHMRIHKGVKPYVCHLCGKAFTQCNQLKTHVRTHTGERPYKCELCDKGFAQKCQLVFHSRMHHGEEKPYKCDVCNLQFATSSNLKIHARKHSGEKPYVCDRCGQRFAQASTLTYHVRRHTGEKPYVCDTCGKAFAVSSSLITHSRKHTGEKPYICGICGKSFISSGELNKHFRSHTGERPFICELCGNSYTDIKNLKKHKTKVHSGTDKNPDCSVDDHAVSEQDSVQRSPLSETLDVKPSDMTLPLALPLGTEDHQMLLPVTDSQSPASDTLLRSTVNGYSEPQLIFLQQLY
UniProt Q9CQW7: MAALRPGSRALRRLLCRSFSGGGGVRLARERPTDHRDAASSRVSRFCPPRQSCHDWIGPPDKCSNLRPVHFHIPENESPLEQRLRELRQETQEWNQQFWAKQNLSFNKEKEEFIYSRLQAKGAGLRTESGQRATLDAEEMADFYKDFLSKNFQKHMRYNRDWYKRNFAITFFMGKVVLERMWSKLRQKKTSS
UniProt Q99N80: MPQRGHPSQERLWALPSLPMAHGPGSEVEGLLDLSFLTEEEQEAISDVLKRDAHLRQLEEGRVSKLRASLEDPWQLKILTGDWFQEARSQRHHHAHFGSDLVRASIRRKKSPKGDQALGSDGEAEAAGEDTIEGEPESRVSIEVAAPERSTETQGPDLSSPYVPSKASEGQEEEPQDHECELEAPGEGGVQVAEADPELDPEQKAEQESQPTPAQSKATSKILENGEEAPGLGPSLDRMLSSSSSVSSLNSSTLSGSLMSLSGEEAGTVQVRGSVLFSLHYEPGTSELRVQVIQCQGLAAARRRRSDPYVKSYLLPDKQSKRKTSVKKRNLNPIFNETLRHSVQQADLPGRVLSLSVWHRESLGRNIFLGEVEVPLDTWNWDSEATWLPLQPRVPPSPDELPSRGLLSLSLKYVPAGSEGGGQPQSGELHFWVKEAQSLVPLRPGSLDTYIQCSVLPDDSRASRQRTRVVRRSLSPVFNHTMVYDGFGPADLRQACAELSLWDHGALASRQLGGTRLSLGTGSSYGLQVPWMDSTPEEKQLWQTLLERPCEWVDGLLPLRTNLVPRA
UniProt Q9CQW9, whole entry: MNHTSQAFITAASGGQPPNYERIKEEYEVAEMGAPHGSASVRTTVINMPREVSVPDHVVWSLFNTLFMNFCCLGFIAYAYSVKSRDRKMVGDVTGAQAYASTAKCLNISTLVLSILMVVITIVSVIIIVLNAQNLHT
UniProt Q99LS1: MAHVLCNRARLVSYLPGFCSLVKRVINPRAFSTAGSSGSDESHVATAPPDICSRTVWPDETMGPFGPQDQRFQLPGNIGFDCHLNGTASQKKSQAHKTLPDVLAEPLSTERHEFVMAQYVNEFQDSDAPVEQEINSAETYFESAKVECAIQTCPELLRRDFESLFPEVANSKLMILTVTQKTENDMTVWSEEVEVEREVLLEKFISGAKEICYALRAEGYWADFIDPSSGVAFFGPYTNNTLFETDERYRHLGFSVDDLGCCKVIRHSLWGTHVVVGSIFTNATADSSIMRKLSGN
UniProt Q9CPX6, whole entry: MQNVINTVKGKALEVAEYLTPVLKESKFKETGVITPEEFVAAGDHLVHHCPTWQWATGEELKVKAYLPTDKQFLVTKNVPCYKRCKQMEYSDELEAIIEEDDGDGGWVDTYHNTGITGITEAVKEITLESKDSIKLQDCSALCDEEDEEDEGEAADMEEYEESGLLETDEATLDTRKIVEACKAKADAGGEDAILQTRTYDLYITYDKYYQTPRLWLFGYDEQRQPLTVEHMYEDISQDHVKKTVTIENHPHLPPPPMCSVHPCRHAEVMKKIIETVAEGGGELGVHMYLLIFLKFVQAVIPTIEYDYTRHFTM
UniProt Q9CQI9: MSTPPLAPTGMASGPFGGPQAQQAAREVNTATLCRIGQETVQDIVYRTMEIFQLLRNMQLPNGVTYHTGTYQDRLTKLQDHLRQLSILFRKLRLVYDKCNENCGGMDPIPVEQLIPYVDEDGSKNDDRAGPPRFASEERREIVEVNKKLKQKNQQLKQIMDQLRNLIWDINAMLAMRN
UniProt Q9CQ80: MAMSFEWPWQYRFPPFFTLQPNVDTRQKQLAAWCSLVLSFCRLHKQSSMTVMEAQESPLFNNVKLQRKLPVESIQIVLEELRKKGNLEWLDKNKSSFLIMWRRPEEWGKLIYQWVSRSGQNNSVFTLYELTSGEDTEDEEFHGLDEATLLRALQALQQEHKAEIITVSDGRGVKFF
UniProt Q99MK9: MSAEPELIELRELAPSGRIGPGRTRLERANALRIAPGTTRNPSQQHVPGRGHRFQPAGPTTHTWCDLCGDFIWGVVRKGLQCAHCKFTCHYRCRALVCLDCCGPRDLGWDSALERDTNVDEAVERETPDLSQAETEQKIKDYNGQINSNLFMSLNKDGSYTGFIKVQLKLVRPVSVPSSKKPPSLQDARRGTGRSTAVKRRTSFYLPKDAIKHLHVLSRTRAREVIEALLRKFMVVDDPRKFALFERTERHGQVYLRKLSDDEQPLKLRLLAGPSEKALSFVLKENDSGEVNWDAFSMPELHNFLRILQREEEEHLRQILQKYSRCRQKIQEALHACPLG
UniProt Q9CPP6: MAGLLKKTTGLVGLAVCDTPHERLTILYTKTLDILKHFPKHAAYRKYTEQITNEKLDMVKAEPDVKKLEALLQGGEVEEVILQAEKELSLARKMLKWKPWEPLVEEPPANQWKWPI
UniProt Q9CQS5: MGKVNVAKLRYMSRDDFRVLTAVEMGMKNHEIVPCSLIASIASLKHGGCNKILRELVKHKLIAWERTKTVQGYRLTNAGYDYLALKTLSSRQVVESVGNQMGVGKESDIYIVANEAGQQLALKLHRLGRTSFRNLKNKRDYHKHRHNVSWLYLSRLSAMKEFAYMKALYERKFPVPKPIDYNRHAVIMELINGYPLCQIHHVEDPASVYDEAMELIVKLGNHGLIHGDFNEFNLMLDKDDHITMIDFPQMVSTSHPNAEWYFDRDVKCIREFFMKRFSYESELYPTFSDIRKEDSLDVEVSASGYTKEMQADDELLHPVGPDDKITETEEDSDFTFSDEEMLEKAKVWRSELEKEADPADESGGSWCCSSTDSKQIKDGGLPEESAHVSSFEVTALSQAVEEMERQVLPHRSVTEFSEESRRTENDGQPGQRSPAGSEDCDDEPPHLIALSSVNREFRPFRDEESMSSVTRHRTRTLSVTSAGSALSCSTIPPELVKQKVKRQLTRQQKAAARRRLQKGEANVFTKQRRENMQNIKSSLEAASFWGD
UniProt Q99MR3: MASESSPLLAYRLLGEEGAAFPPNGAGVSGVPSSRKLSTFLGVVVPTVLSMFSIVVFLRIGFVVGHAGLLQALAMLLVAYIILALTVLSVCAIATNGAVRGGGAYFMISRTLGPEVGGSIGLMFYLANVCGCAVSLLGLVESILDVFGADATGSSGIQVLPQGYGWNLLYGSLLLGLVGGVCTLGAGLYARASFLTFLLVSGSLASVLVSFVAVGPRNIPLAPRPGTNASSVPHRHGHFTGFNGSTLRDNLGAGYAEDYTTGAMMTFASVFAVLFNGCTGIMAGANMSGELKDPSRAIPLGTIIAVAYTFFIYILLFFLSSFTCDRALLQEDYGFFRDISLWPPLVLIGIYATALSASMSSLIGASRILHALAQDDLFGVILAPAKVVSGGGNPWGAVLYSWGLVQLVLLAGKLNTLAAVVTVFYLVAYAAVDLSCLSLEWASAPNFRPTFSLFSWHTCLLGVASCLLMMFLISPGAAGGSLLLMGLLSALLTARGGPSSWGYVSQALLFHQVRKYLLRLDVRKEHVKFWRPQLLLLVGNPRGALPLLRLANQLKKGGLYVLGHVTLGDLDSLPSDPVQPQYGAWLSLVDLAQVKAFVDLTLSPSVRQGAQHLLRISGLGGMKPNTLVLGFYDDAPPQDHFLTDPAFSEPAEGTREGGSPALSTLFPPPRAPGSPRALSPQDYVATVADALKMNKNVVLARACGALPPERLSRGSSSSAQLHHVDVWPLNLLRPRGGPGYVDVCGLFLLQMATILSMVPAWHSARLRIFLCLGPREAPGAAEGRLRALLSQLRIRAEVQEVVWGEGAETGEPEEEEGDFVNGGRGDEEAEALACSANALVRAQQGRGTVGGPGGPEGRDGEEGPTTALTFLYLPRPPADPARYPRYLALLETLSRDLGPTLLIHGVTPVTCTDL
UniProt Q99PJ2: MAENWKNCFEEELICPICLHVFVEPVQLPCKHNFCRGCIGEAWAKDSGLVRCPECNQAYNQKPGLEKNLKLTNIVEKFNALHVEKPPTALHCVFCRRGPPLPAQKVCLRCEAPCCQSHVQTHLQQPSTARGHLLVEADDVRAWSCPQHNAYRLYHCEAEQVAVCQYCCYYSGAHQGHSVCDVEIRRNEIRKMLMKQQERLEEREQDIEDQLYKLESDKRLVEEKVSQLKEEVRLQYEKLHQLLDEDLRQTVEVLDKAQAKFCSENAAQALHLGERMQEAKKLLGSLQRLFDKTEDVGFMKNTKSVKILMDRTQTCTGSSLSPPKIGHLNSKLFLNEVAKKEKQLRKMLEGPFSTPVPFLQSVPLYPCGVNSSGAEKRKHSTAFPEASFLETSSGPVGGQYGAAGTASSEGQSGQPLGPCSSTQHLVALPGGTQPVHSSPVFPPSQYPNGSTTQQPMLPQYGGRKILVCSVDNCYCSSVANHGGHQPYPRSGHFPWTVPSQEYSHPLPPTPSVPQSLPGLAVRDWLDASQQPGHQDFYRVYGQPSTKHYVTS

compound: CN[C@@H]1C[C@H]2O[C@@](C)([C@@H]1OC)n1c3ccccc3c3c4c(c5c6ccccc6n2c5c31)C(=O)NC4 [staurosporine]; experiment: log2 fold change of tryptic peptide abundance, ligand vs vehicle (limited proteolysis) (log2 ratio); higher = more trypsin-susceptible (destabilized); details: ligand concentration: 20 uM; sample: mouse liver crude lysate; replicate design: treated separately

Row | Target | log2 fold change
1 | UniProt Q9CQQ4 (peptide sequence: SQQLDSNVAMPK, peptide start residue: 115) | -0.189
2 | UniProt Q9CQ26 (peptide sequence: NIAIQQELEKEK, peptide start residue: 135) | -0.186
3 | UniProt Q99M04 (peptide sequence: VEEYVTPEKFK, peptide start residue: 318) | 0.569
4 | UniProt Q99M51 (peptide sequence: LYDLNMPAFVK, peptide start residue: 104) | 0.24
5 | UniProt Q9CQ19 (peptide sequence: GNFNYVEFTR, peptide start residue: 152) | 0.135
6 | UniProt Q9CQJ7 (peptide sequence: VFNAPAVPK, peptide start residue: 47) | 0.0701
7 | UniProt Q9CQY6 (peptide sequence: GRDLGAYLR, peptide start residue: 24) | 0.488
8 | UniProt Q99PI4 (peptide sequence: GYLQWVSEHGCGLPK, peptide start residue: 698) | -0.376
9 | UniProt Q9BCZ4 (peptide sequence: LRMQEDLNAQVEK, peptide start residue: 87) | -0.594
10 | UniProt Q99MD8 (peptide sequence: EKSEVSTDSVQANPKPR, peptide start residue: 154) | 0.139
11 | UniProt Q9CQW7 (peptide sequence: ERPTDHR, peptide start residue: 30) | -0.153
12 | UniProt Q9CQF0 (peptide sequence: IFIKPDRTFELK, peptide start residue: 70) | 0.369
13 | UniProt Q99N80 (peptide sequence: ASLEDPWQLK, peptide start residue: 68) | -0.079
14 | UniProt Q9CQW9 (peptide sequence: IKEEYEVAEMGAPHGSASVR, peptide start residue: 23) | -0.0892
15 | UniProt Q99LS1 (peptide sequence: LVSYLPGFCSLVKR, peptide start residue: 11) | 0.228
16 | UniProt Q9CPX6 (peptide sequence: AYLPTDKQFLVTK, peptide start residue: 65) | -0.441
17 | UniProt Q9CQI9 (peptide sequence: EIVEVNKK, peptide start residue: 141) | -0.538
18 | UniProt Q9CQ80 (peptide sequence: KGNLEWLDK, peptide start residue: 84) | 0.133
19 | UniProt Q99MK9 (peptide sequence: KPPSLQDAR, peptide start residue: 181) | 0.291
20 | UniProt Q9CPP6 (peptide sequence: KYTEQITNEKLDMVK, peptide start residue: 46) | 0.255
21 | UniProt Q9CQS5 (peptide sequence: ENMQNIK, peptide start residue: 530) | -0.369
22 | UniProt Q99MR3 (peptide sequence: FWRPQLLLLVGNPR, peptide start residue: 529) | 0.76
23 | UniProt Q99PJ2 (peptide sequence: GHLLVEADDVR, peptide start residue: 131) | 0.282
24 | UniProt Q9CQX8 (peptide sequence: VVQVVKPHAPLIK, peptide start residue: 11) | 0.0951
25 | UniProt Q9CPY4 (peptide sequence: ALVRECLAETER, peptide start residue: 112) | 0.137

Quoted from above, entries 15–16
Row | Target | log2 fold change
15 | UniProt Q99LS1 (peptide sequence: LVSYLPGFCSLVKR, peptide start residue: 11) | 0.228
16 | UniProt Q9CPX6 (peptide sequence: AYLPTDKQFLVTK, peptide start residue: 65) | -0.441
